Results deposited as PubChem BioAssay AID504793 (Drosophila RNAi Screening Center, 2011)

Aim: 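Genes required for cells to halt at G2/M after double-strand DNA breaks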 (primary screen)
Cell system: Drosophila S2R+ cells
Reagents: long dsRNA against Drosophila genes, about 0.25 µg dsRNA per well
Timing: 4 days of dsRNA, then 4 hours of drug before read-out
Treatment: doxorubicin 0.5 µM for 4 hours to cause double-strand breaks, in cells also given a low, harmless dose of dsRNA against nbs to sensitise the assay
Measured: 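Per-well count of mitotic cells stained for phospho-histone H3 after doxorubicin exposure, used as mitotic index; counts are raw and not normalised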
Scale: mitotic cells: higher = more cells in mitosis, weaker G2 arrest
Rule for the call: 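a call needs confirmation in secondary tests, with other dsRNAs and a check of mitotic timing without damage, not just a high primary count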
Calls: active = confirmed in follow-up tests; inactive = not confirmed
In all, the deposit lists about 23,000 reagents; shown is a random part of those with a known target gene and a result. Over the whole deposit, 62 (0.27%) are marked active. 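Calls come from follow-up tests whose scores are not deposited, so confirmed genes may have low counts here; counts are not normalised per plate.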 The raw values are shown without normalisation. Names joined by + are all predicted targets of the reagent.

gene | DRSC id | mitotic cells, replicate 1 | mitotic cells, replicate 2 | activity call
Wdr81 (WD repeat domain 81) | DRSC02985 | 7 | – | inactive
Wdr81 (WD repeat domain 81) | DRSC27272 | 7 | – | inactive
CG3515 | DRSC00609 | 3 | – | inactive
CG31223 | DRSC15115 | 5 | – | inactive
CG11362 | DRSC04106 | 1 | – | inactive
CG11362 | DRSC22032 | 11 | – | inactive
CG11362 | DRSC27136 | 6 | – | inactive
Tsp42Ep (Tetraspanin 42Ep) | DRSC06871 | 13 | – | inactive
CG30159 | DRSC04981 | 5 | – | inactive
CG30159 | DRSC26683 | 8 | – | inactive
lectin-28C | DRSC03010 | – | – | inactive
lectin-28C | DRSC26982 | 11 | – | inactive
CG11608 | DRSC14334 | 7 | – | inactive
CG18661 | DRSC02690 | 5 | – | inactive
eEF1alpha1 (eukaryotic translation elongation factor 1 alpha 1) | DRSC07421 | 5 | – | inactive
eEF1alpha1 (eukaryotic translation elongation factor 1 alpha 1) | DRSC25133 | 2 | – | inactive
GATAe | DRSC23209 | 20 | – | inactive
alrm (astrocytic leucine-rich repeat molecule) | DRSC14436 | 11 | – | inactive
sstn (stepping stone) | DRSC10753 | 2 | – | inactive
sstn (stepping stone) | DRSC29335 | 2 | – | inactive
CG6333 | DRSC10626 | 7 | – | inactive
E(spl)m4-BFM (Enhancer of split m4, Bearded family member) | DRSC16992 | 10 | – | inactive
E(spl)m4-BFM (Enhancer of split m4, Bearded family member) | DRSC27642 | 13 | – | inactive
CG7289 | DRSC00697 | 6 | – | inactive
lace | DRSC03564 | 11 | – | inactive
CG31098 | DRSC14259 | 12 | – | inactive
CG13607 | DRSC14610 | 14 | – | inactive
CG13359 | DRSC18539 | 11 | – | inactive
CG13359 | DRSC26791 | 6 | – | inactive
tipE (temperature-induced paralytic E) | DRSC08738 | 2 | – | inactive
tipE (temperature-induced paralytic E) | DRSC29985 | 6 | – | inactive
Gal (beta galactosidase) | DRSC03134 | 9 | – | inactive
Gal (beta galactosidase) | DRSC24562 | 7 | – | inactive
Phb1 (Prohibitin 1) | DRSC03563 | 8 | – | inactive
Phb1 (Prohibitin 1) | DRSC27403 | 9 | – | inactive
CG32984 | DRSC21602 | 13 | – | inactive
CG32984 | DRSC29257 | 6 | – | inactive
Suv3 (Suv3 helicase) | DRSC12335 | 8 | – | inactive
CG16837 | DRSC04283 | 5 | – | inactive
CG16837 | DRSC26178 | 131 | – | inactive
CG42342 | DRSC13165 | 4 | – | inactive
CG42342 | DRSC15010 | 7 | – | inactive
CG42342 | DRSC15011 | 8 | – | inactive
CG42342 | DRSC15012 | 4 | – | inactive
CG42342 | DRSC21791 | 17 | – | inactive
CG42342 | DRSC22861 | 6 | – | inactive
CG42342 | DRSC23112 | 12 | – | inactive
CG42342 | DRSC24200 | 9 | – | inactive
CG42342 | DRSC25912 | 8 | – | inactive
CG42342 | DRSC28157 | 5 | – | inactive
Rbbp5 (Retinoblastoma binding protein 5) | DRSC11778 | 2 | – | inactive
CG10920 | DRSC17765 | 27 | – | inactive
blow (blown fuse) | DRSC07586 | 8 | – | inactive
blow (blown fuse) | DRSC27716 | 3 | – | inactive
CG4691 | DRSC01950 | 3 | – | inactive
CG4691 | DRSC27902 | 7 | – | inactive
Ilp5 (Insulin-like peptide 5) | DRSC08998 | 8 | – | inactive
RpL28 + snoRNA:Me28S-C3351 | DRSC26182 | 10 | – | inactive
CG2157 | DRSC19836 | 8 | – | inactive
Tom7 (Translocase of outer membrane 7) | DRSC05135 | 8 | – | inactive
Tom7 (Translocase of outer membrane 7) | DRSC07113 | 9 | – | inactive
CG8097 | DRSC20079 | 7 | – | inactive
CG7168 | DRSC16208 | 10 | – | inactive

A few values from the entries so far:
For “activity call”, E(spl)m4-BFM (Enhancer of split m4, Bearded family member) [DRSC16992] reads inactive
CG11362 [DRSC27136], activity call: inactive
CG42342 [DRSC15010], activity call: inactive
For “activity call”, CG42342 [DRSC28157] shows inactive
CG30159 [DRSC04981], mitotic cells, replicate 1: 5
Under “mitotic cells, replicate 1”, CG11608 [DRSC14334] shows 7

More results follow:
gene | DRSC id | mitotic cells, replicate 1 | mitotic cells, replicate 2 | activity call
Kcmf1 (Potassium channel modulatory factor 1) | DRSC14459 | 5 | – | inactive
Kcmf1 (Potassium channel modulatory factor 1) | DRSC26004 | 11 | – | inactive
Smvt (Sodium-dependent multivitamin transporter) | DRSC15426 | 17 | – | inactive
Ptp99A (Protein tyrosine phosphatase 99A) | DRSC13939 | 5 | – | inactive
Ptp99A (Protein tyrosine phosphatase 99A) | DRSC14319 | 16 | – | inactive
Ptp99A (Protein tyrosine phosphatase 99A) | DRSC14320 | 8 | – | inactive
Ptp99A (Protein tyrosine phosphatase 99A) | DRSC16803 | 10 | – | inactive
Ptp99A (Protein tyrosine phosphatase 99A) | DRSC22125 | 8 | – | inactive
Ptp99A (Protein tyrosine phosphatase 99A) | DRSC22477 | 55 | – | inactive
Ptp99A (Protein tyrosine phosphatase 99A) | DRSC23033 | 7 | – | inactive
PGAP5 (Post-GPI attachment to proteins 5) | DRSC03089 | 7 | – | inactive
PGAP5 (Post-GPI attachment to proteins 5) | DRSC27504 | 3 | – | inactive
CG30046 | DRSC06691 | 4 | – | inactive
GC2 | DRSC14476 | 2 | – | inactive
GC2 | DRSC27370 | 9 | – | inactive
CG4461 | DRSC10423 | 4 | – | inactive
CG4461 | DRSC29266 | 6 | – | inactive
Mur2B (Mucin related 2B) | DRSC18545 | 6 | – | inactive
Mur2B (Mucin related 2B) | DRSC18546 | 12 | – | inactive
CG3062 | DRSC18572 | 17 | – | inactive
CG14995 | DRSC22991 | 11 | – | inactive
LamC (Lamin C) | DRSC07453 | 3 | – | inactive
LamC (Lamin C) | DRSC25517 | 6 | – | inactive
Spn28F (Serpin 28F) | DRSC03615 | 11 | – | inactive
Spn28F (Serpin 28F) | DRSC25759 | 11 | – | inactive
CG1092 | DRSC12151 | 3 | – | inactive
CG1092 | DRSC24479 | 2 | – | inactive
CG32111 (retired record) | DRSC09203 | 6 | – | inactive
CG7457 | DRSC10849 | 4 | – | inactive
CG7457 | DRSC27107 | 5 | – | inactive
Met75Ca + Met75Cb | DRSC09549 | 6 | – | inactive
Met75Ca + Met75Cb | DRSC11221 | 5 | – | inactive
gwl (greatwall) | DRSC16305 | 16 | – | inactive
senju | DRSC02366 | 4 | – | inactive
Nach | DRSC07478 | 6 | – | inactive
eIF3e (eukaryotic translation initiation factor 3 subunit e) | DRSC11199 | 6 | – | inactive
CG18666 | DRSC02694 | 6 | – | inactive
Pink1 (PTEN-induced putative kinase 1) | DRSC18361 | 9 | – | inactive
CG8673 | DRSC03105 | 8 | – | inactive
lncRNA:bxd (bithoraxoid) | DRSC13176 | 41 | 11 | inactive
lncRNA:bxd (bithoraxoid) | DRSC28062 | 7 | 5 | inactive
lncRNA:bxd (bithoraxoid) | DRSC39127 | 9 | – | inactive
CG5532 | DRSC04509 | 12 | – | inactive
CG9222 | DRSC03158 | 6 | – | inactive
CG12645 | DRSC17851 | 13 | – | inactive
CG12645 | DRSC24406 | 2 | – | inactive
Or49a (Odorant receptor 49a) | DRSC07493 | 5 | – | inactive
Eig71Ee (Ecdysone-induced gene 71Ee) | DRSC11152 | 6 | – | inactive
S6k (Ribosomal protein S6 kinase) | DRSC11276 | 5 | – | inactive
CG32639 | DRSC18972 | 13 | – | inactive
CG9662 | DRSC00723 | 6 | – | inactive
stck (steamer duck) | DRSC17070 | 7 | – | inactive
TBC1D23 (TBC1 domain family member 23) | DRSC00657 | 6 | – | inactive
TBC1D23 (TBC1 domain family member 23) | DRSC30084 | 4 | – | inactive
epsilonTry (epsilonTrypsin) | DRSC07611 | 4 | – | inactive
epsilonTry (epsilonTrypsin) | DRSC25110 | 5 | – | inactive
Akap200 (A kinase anchor protein 200) | DRSC01864 | 7 | – | inactive
aru (arouser) | DRSC00802 | 2 | – | inactive
aru (arouser) | DRSC22019 | 9 | – | inactive
CG8736 | DRSC07255 | 3 | – | inactive
CG8736 | DRSC27360 | 4 | – | inactive
CG13227 | DRSC06347 | 11 | – | inactive
CG13227 | DRSC27529 | 2 | – | inactive
CG8219 | DRSC10971 | 2 | – | inactive
CG8219 | DRSC24577 | 9 | – | inactive
FeCH (Ferrochelatase) | DRSC16948 | 7 | – | inactive
FeCH (Ferrochelatase) | DRSC27562 | 3 | – | inactive
CG15822 | DRSC08482 | 5 | – | inactive
CG15822 | DRSC08483 | 10 | – | inactive
CheB98a (Chemosensory protein A 98a) | DRSC14882 | 12 | – | inactive
Msp300 (Muscle-specific protein 300 kDa) | DRSC00856 | 6 | – | inactive
Msp300 (Muscle-specific protein 300 kDa) | DRSC00857 | 14 | – | inactive
Msp300 (Muscle-specific protein 300 kDa) | DRSC00858 | 5 | – | inactive
Msp300 (Muscle-specific protein 300 kDa) | DRSC02360 | 5 | – | inactive
Msp300 (Muscle-specific protein 300 kDa) | DRSC03369 | 3 | – | inactive
Msp300 (Muscle-specific protein 300 kDa) | DRSC03370 | 5 | – | inactive
CG17580 | DRSC06683 | 4 | – | inactive
CG17580 | DRSC27009 | 5 | – | inactive
